Results reported in the supplement of paper PMC9226226.
Where “and” joins values, the source holds several entries; their conditions need not be identical. Equal values may be shown once. This is one part of the list. Some well-known active drugs show little effect in this data set, so a weak value is uncertain.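 Prematurely aging human mesenchymal stem cells without the Werner syndrome gene were monitored by automated live-cell imaging over three biological repeats. The top twenty drugs for increasing growth versus vehicle moved forward; no fixed cutoff was specified.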 Bridge positions count the residues as written; N and C are the ends. Square brackets hold non-standard residues; d marks the D form. Peptide text beside a SMILES is read from it. * marks the point of attachment. Ileψ(thiazoline)Cys = CC[C@H](C)[C@H](N)C1=N[C@H](C(=O)*)CS1; dOrn = NCCC[C@@H](N)C(=O)O

Test system: Werner syndrome hMSCs (WRN-/-)
Assay: relative cell density (fold change vs vehicle control); higher = more proliferation (geroprotective)
Conditions: concentration (umol/L): 1, 6 days

Row | Compound | relative cell density (vehicle: DMSO) | relative cell density (vehicle: Water)
1 | CCCC(CCC)C(N)=O | 0.915 | 
2 | CN(C)CC/C=C1/c2ccccc2Sc2ccc(Cl)cc21 | 1.35 | 
3 | O=C(O)CSc1nnc(Br)n1-c1ccc(C2CC2)c2ccccc12 | 1.49 | 
4 | CC(=O)[C@H]1CC[C@H]2[C@@H]3CCC4=CC(=O)CC[C@]4(C)[C@H]3CC[C@]12C | 1.09 | 
5 | Cn1cc(CNCC2CCN(c3ncc(C(=O)NO)cn3)CC2)c2ccccc21 | 0.133 | 
6 | CN(C)CCOC(c1ccccc1)c1ccccc1 | 1.24 | 
7 | COc1cc(O)c(C(=O)c2ccccc2)cc1S(=O)(=O)O | 1.39 | 
8 | Nc1cccc2c1C(=O)N(C1CCC(=O)NC1=O)C2=O (stereo not given) | 1.04 | 
9 | N=C(N)NC(=O)Cc1c(Cl)cccc1Cl | 1.22 | 
10 | CCCCCCCCCC(=O)N[C@@H](Cc1c[nH]c2ccccc12)C(=O)N[C@@H](CC(N)=O)C(=O)N[C@@H](CC(=O)O)C(=O)N[C@@H]1C(=O)NCC(=O)N[C@@H](CCCN)C(=O)N[C@@H](CC(=O)O)C(=O)N[C@H](C)C(=O)N[C@@H](CC(=O)O)C(=O)NCC(=O)N[C@H](CO)C(=O)N[C@@H]([C@H](C)CC(=O)O)C(=O)N[C@@H](CC(=O)c2ccccc2N)C(=O)O[C@@H]1C | 0.927 | 
11 | CC1(C)CCC(C)(C)c2cc(NC(=O)c3ccc(C(=O)O)cc3)ccc21 | 1.07 | 
12 | N[C@@H](Cc1cc(I)c(Oc2cc(I)c(O)c(I)c2)c(I)c1)C(=O)O | 1.19 and 1.13 | 
13 | COc1cc(C(=O)O)ccc1NC(=O)[C@@H]1N[C@@H](CC(C)(C)C)[C@](C#N)(c2ccc(Cl)cc2F)[C@H]1c1cccc(Cl)c1F | 1.14 | 
14 | Nc1ncnc2c1ncn2[C@@H]1O[C@H](CO)[C@@H](O)[C@H]1O | 1.15 | 
15 | Clc1ccc(CSC(Cn2ccnc2)c2ccc(Cl)cc2Cl)cc1 (stereo not given) | 0.905 | 
16 | CC(=O)O[C@@]12CO[C@@H]1C[C@H](O)[C@@]1(C)C(=O)[C@H](O)C3=C(C)[C@@H](OC(=O)[C@H](O)[C@@H](NC(=O)OC(C)(C)C)c4ccccc4)C[C@@](O)([C@@H](OC(=O)c4ccccc4)[C@H]21)C3(C)C | 0.493 and 0.381 | 
17 | Nc1ccn([C@@H]2O[C@H](CO)[C@@H](O)C2(F)F)c(=O)n1 | 0.874 | 0.442
18 | CO[C@H]1C[C@@H]2CC[C@@H](C)[C@@](O)(O2)C(=O)C(=O)N2CCCC[C@H]2C(=O)O[C@H]([C@H](C)C[C@@H]2CC[C@@H](OCCO)[C@H](OC)C2)CC(=O)[C@H](C)/C=C(\C)[C@@H](O)[C@@H](OC)C(=O)[C@H](C)C[C@H](C)/C=C/C=C/C=C/1C | 0.761 | 
19 | CN(C)CCN(Cc1ccccc1)c1ccccn1 |  | 1.06
20 | CC1CNc2c(cccc2S(=O)(=O)N[C@@H](CCCNC(=N)N)C(=O)N2CC[C@@H](C)C[C@@H]2C(=O)O)C1 (stereo not given in full) | 1.18 and 1.17 | 
21 | C=C1/C(=C\C=C2/CCC[C@]3(C)[C@@H]([C@H](C)CCCC(C)C)CC[C@@H]23)C[C@@H](O)C[C@@H]1O | 1.51 | 
22 | O=C(O)CCNC(=O)c1ccccc1 | 0.71 | 

Row | Compound | relative cell density (vehicle: DMSO) | relative cell density (vehicle: Water)
23 | O=C(N[C@H](CO)[C@H](O)c1ccc([N+](=O)[O-])cc1)C(Cl)Cl | 1.06 | 
24 | CCC[C@@H]1C[C@@H](C(=O)N[C@@H]([C@H]2O[C@H](SC)[C@H](O)[C@@H](O)[C@H]2O)[C@H](C)Cl)N(C)C1 | 0.866 and 1.03 | 
25 | CC1=NN(c2ccccc2)C(=O)C1 | 1.09 | 
26 | CCN(CC)CCNC(=O)c1cc(Cl)c(N)cc1OC | 1.17 | 
27 | CC(C)(CO)C(O)C(=O)NCCCO (stereo not given) | 1.15 | 
28 | CCOc1ccc2ccccc2c1C(=O)N[C@@H]1C(=O)N2[C@@H]1SC(C)(C)[C@@H]2C(=O)O | 1.12 | 
29 | COc1cc2c(Oc3ccc(NC(=O)C4(C(=O)Nc5ccc(F)cc5)CC4)cc3F)ccnc2cc1OCCCN1CCOCC1 | 0.106 | 
30 | COc1ccccc1Oc1c(NS(=O)(=O)c2ccc(C(C)(C)C)cc2)nc(-c2ncccn2)nc1OCCO | 1 | 
31 | CN(C)CCC=C1c2ccccc2COc2ccccc21 | 1.54 | 
32 | CC(C)[N+](C)(CCOC(=O)C1c2ccccc2Oc2ccccc21)C(C)C | 1.03 | 
33 | CN1CCC[C@@H]1Cc1c[nH]c2ccc(CCS(=O)(=O)c3ccccc3)cc12 | 0.998 | 
34 | Cc1onc(-c2ccccc2Cl)c1C(=O)N[C@@H]1C(=O)N2[C@@H]1SC(C)(C)[C@@H]2C(=O)O | 0.843 | 
35 | C#Cc1cccc(Nc2ncnc3cc(OCCOC)c(OCCOC)cc23)c1 | 0.763 | 0.16
36 | NS(=O)(=O)c1cc2c(cc1Cl)NC(C(Cl)Cl)NS2(=O)=O (stereo not given) | 1 | 
37 | CN[C@@H]1[C@H](O)[C@H](NC)[C@H]2O[C@@]3(O)C(=O)C[C@@H](C)O[C@H]3O[C@@H]2[C@H]1O | 0.919 | 
38 | CCCCCCOC(=O)NC(=N)c1ccc(NCc2nc3cc(C(=O)N(CCC(=O)OCC)c4ccccn4)ccc3n2C)cc1 | 1.29 | 
39 | NCCCC(=O)O |  | 0.899
40 | COc1ccc(O)cc1 | 0.976 | 
41 | Cc1c(-c2ccccc2)oc2c(C(=O)OCCN3CCCCC3)cccc2c1=O |  | 0.833
42 | CC(=O)CCC=C(C)CCC=C(C)CCC=C(C)CCC=C(C)C | 1.22 | 
43 | CC12CCC(CC1=O)C2(C)C (stereo not given) | 1.16 | 
44 | CCN(CC)CCOC(=O)c1ccc(N)cc1Cl | 1 | 

Row | Compound | relative cell density (vehicle: DMSO) | relative cell density (vehicle: Water)
45 | C[C@](N)(Cc1ccc(O)c(O)c1)C(=O)O |  | 1.16
46 | Clc1ccc(C(Cn2ccnc2)OCc2ccsc2Cl)c(Cl)c1 (stereo not given) | 1.25 | 
47 | COc1cc2c(cc1OC)CC(=O)N(CCCN(C)C[C@H]1Cc3cc(OC)c(OC)cc31)CC2 | 0.975 | 
48 | Cc1c(C(=O)NN2CCCCC2)nn(-c2ccc(Cl)cc2Cl)c1-c1ccc(Cl)cc1 | 0.975 | 
49 | COc1nc2ccc(Br)cc2cc1[C@@H](c1ccccc1)[C@@](O)(CCN(C)C)c1cccc2ccccc12 | 1.1 | 
50 | O=C(O)C(=O)O.[NH-][C@@H]1CCCC[C@H]1[NH-].[Pt+2] |  | 1.25
51 | Cc1ccc(NC(=O)c2ccc(CN3CCN(C)CC3)cc2)cc1Nc1nccc(-c2cccnc2)n1 | 1.35 and 1.16 | 
52 | CC(C)C(=O)Oc1ccc(CO)cc1[C@H](CCN(C(C)C)C(C)C)c1ccccc1 | 1.13 | 
53 | CCOC(=O)O[C@]1(C(=O)OCCl)CC[C@H]2[C@@H]3CCC4=CC(=O)C=C[C@]4(C)[C@H]3[C@@H](O)C[C@@]21C | 1.02 | 
54 | C#CCN[C@@H]1CCc2ccccc21 | 1.26 | 
55 | CCOc1nc2cccc(C(=O)OCc3oc(=O)oc3C)c2n1Cc1ccc(-c2ccccc2-c2noc(=O)[nH]2)cc1 | 1.68 | 
56 | CN1c2cc(O)c(N=NC(N)=O)cc2CC1S(=O)(=O)O (stereo not given) | 1.04 | 
57 | O=C(O)c1cn(C2CC2)c2cc(N3CCNCC3)c(F)cc2c1=O | 1.31 | 
58 | CC(C)NCC(O)COc1ccc(CCOCC2CC2)cc1 (stereo not given) | 1.01 and 0.991 | 
59 | CCc1nc(N)nc(N)c1-c1ccc(Cl)cc1 | 0.877 | 
60 | CCN(C(=O)c1c(O)c2c(Cl)cccc2n(C)c1=O)c1ccccc1 | 0.994 | 
61 | CN1CC(=O)N2[C@H](c3ccc4c(c3)OCO4)c3[nH]c4ccccc4c3C[C@@H]2C1=O | 1.3 | 
62 | CCCN1CCCC[C@H]1C(=O)Nc1c(C)cccc1C | 0.894 | 
63 | CC(C)(OCc1nn(Cc2ccccc2)c2ccccc12)C(=O)O | 1.15 | 
64 | CNC[C@H](O)c1ccc(O)c(O)c1 | 0.96 and 1.3 | 
65 | COC[C@H]1C[C@@H](c2nc(-c3ccc4c(c3)COc3cc5c(ccc6nc([C@@H]7CC[C@H](C)N7C(=O)[C@@H](NC(=O)OC)C(C)C)[nH]c65)cc3-4)c[nH]2)N(C(=O)[C@H](NC(=O)OC)c2ccccc2)C1 | 0.933 | 
66 | CN1CCN(CCCN2c3ccccc3Sc3ccc(C(F)(F)F)cc32)CC1 | 1.02 | 

Row | Compound | relative cell density (vehicle: DMSO) | relative cell density (vehicle: Water)
67 | CC(S)C(=O)NCC(=O)O (stereo not given) | 0.964 | 
68 | NC(=O)c1cccc2cn(-c3ccc([C@@H]4CCCNC4)cc3)nc12 | 0.691 and 1.03 | 
69 | CC[C@H](C)[C@H](N)C1=N[C@H](C(=O)N[C@@H](CC(C)C)C(=O)N[C@H](CCC(=O)O)C(=O)N[C@H](C(=O)N[C@H]2CCCCNC(=O)[C@H](CC(N)=O)NC(=O)[C@@H](CC(=O)O)NC(=O)[C@H](Cc3cnc[nH]3)NC(=O)[C@@H](Cc3ccccc3)NC(=O)[C@H]([C@@H](C)CC)NC(=O)[C@@H](CCCN)NC2=O)[C@@H](C)CC)CS1 ({Ileψ(thiazoline)Cys}-L[dE]IK[dOrn]I[dF]H[dD]N; lactam 4-C) |  | 0.984
70 | OC(CNCC(O)C1CCc2cc(F)ccc2O1)C1CCc2cc(F)ccc2O1 (stereo not given) | 1.12 | 
71 | Oc1c(I)cc(Cl)c2cccnc12 | 1.16 | 
72 | C[C@@H](O)[C@H]1C(=O)N2C(C(=O)O)=C(S[C@@H]3CN[C@H](CNS(N)(=O)=O)C3)[C@H](C)[C@H]12 | 0.977 | 
73 | COc1cc2nccc(Oc3ccc(NC(=O)Nc4cc(C)on4)c(Cl)c3)c2cc1OC | 1.09 | 
74 | CC(C)(C#N)c1cc(Cn2cncn2)cc(C(C)(C)C#N)c1 | 1.07 | 
75 | C=CCNC(N)=S | 1.17 | 
76 | CN(C)CCOC(C)(c1ccccc1)c1ccccn1 (stereo not given) | 1.26 | 
77 | Nc1ccn([C@H]2CC[C@@H](CO)O2)c(=O)n1 | 1.1 | 
78 | Nc1nc2ccc(OC(F)(F)F)cc2s1 | 1.13 | 
79 | CN1CCC(=C2c3ccccc3CCc3cccnc32)CC1 | 1.05 | 
80 | COc1ccc2c(c1)c(CC(=O)O)c(C)n2C(=O)c1ccc(Cl)cc1 | 1.01 | 
81 | CCC/N=C1\S/C(=C\c2ccc(OC[C@H](O)CO)c(Cl)c2)C(=O)N1c1ccccc1C | 0.851 | 
82 | CC(C)C[C@H](NC(=O)[C@@H](NC(=O)c1cccc(-c2ccccc2)n1)[C@@H](C)O)B(O)O | 0.215 | 
83 | O=C([O-])c1ccccc1.[Na+] | 1.05 | 
84 | C[C@]1(O)C[C@@H](c2nc(-c3ccc4ccc(-c5ccccc5)nc4c3)c3c(N)nccn32)C1 | 0.611 | 
85 | C[C@@H]1CCO[C@H]2Cn3cc(C(=O)NCc4ccc(F)cc4F)c(=O)c(O)c3C(=O)N12 | 1.12 | 
86 | O=C(C1CCCCC1)N1CC(=O)N2CCc3ccccc3C2C1 (stereo not given) | 1.05 | 
87 | C(=C\c1ccccc1)/CN1CCN(C(c2ccccc2)c2ccccc2)CC1 | 1.08 | 
88 | CC(=O)NCCCS(=O)(=O)O |  | 1.07

As a short view, some entries already given:
Row | Compound | relative cell density (vehicle: DMSO) | relative cell density (vehicle: Water)
33 | CN1CCC[C@@H]1Cc1c[nH]c2ccc(CCS(=O)(=O)c3ccccc3)cc12 | 0.998 | 
34 | Cc1onc(-c2ccccc2Cl)c1C(=O)N[C@@H]1C(=O)N2[C@@H]1SC(C)(C)[C@@H]2C(=O)O | 0.843 | 
35 | C#Cc1cccc(Nc2ncnc3cc(OCCOC)c(OCCOC)cc23)c1 | 0.763 | 0.16
36 | NS(=O)(=O)c1cc2c(cc1Cl)NC(C(Cl)Cl)NS2(=O)=O (stereo not given) | 1 | 
37 | CN[C@@H]1[C@H](O)[C@H](NC)[C@H]2O[C@@]3(O)C(=O)C[C@@H](C)O[C@H]3O[C@@H]2[C@H]1O | 0.919 | 
38 | CCCCCCOC(=O)NC(=N)c1ccc(NCc2nc3cc(C(=O)N(CCC(=O)OCC)c4ccccn4)ccc3n2C)cc1 | 1.29 | 
39 | NCCCC(=O)O |  | 0.899
40 | COc1ccc(O)cc1 | 0.976 | 
41 | Cc1c(-c2ccccc2)oc2c(C(=O)OCCN3CCCCC3)cccc2c1=O |  | 0.833
42 | CC(=O)CCC=C(C)CCC=C(C)CCC=C(C)CCC=C(C)C | 1.22 | 
43 | CC12CCC(CC1=O)C2(C)C (stereo not given) | 1.16 | 
44 | CCN(CC)CCOC(=O)c1ccc(N)cc1Cl | 1 | 
45 | C[C@](N)(Cc1ccc(O)c(O)c1)C(=O)O |  | 1.16
46 | Clc1ccc(C(Cn2ccnc2)OCc2ccsc2Cl)c(Cl)c1 (stereo not given) | 1.25 | 
47 | COc1cc2c(cc1OC)CC(=O)N(CCCN(C)C[C@H]1Cc3cc(OC)c(OC)cc31)CC2 | 0.975 | 
48 | Cc1c(C(=O)NN2CCCCC2)nn(-c2ccc(Cl)cc2Cl)c1-c1ccc(Cl)cc1 | 0.975 | 
